## Binding screen against folded nucleic acids

Data from the ROBIN nucleic acid binder screens, doi:10.1002/anie.202211358.

Targets, with sequences 5′ to 3′:
T1: PreQ1 riboswitch RNA pseudoknot, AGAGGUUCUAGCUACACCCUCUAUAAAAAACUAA. From B. subtilis. About 24,000 compounds screened, about 170 hits.
T2: TPP riboswitch RNA three-way junction, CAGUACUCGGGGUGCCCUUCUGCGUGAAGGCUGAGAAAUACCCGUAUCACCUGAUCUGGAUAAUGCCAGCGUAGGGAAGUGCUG. About 24,000 compounds screened, about 160 hits.
T3: SAM-II riboswitch RNA pseudoknot, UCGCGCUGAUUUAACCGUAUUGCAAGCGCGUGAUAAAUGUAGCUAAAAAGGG. About 21,000 compounds screened, about 200 hits.

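Each compound is printed as two spots on a slide made to bind it covalently, so it has no test concentration; the read-out is fluorescence of the bound, labelled oligonucleotide. For the PreQ1, TPP and SAM-II riboswitches the laboratory earlier reported (doi:10.1038/s41467-019-09493-3) 1 µM RNA, 2 h, and a rule that included a mean Z-score above 3 (spot signal-to-noise against the whole library), a score well above that on a control array, and duplicate spots agreeing (coefficient of variation under 100). The data file gives only the calls; its cut-offs may differ, and compounds hitting several targets are kept. The calls come from the array alone, and fixing a compound to the slide can hide its binding.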 “active” means called a hit, “inactive” means screened and not called a hit. Compounds were drawn at random from those tested, without regard to their results. A target missing from an entry has no call listed here.

- CNC1CCC(N(Cc2cccc(-c3ccncc3)c2)C(=O)c2sc3ccccc3c2Cl)CC1 (stereo not given) | T1: inactive; T2: inactive; T3: inactive
- CCOc1ccc(-c2c(C(F)(F)F)n[nH]c2N)cc1OCC | T1: inactive; T2: inactive; T3: inactive
- CCNC(=O)CCN1C[C@H](C2CC2)[C@@H](N)C1 | T1: inactive; T2: inactive; T3: inactive
- O=S(=O)(NCCNCC1(O)CNCCOC1)c1ccc(Cl)cc1 (stereo not given) | T1: inactive; T2: inactive; T3: inactive
- CCc1nc(N)sc1C(=O)N1C[C@@H]2CC[C@H](C1)N(CC=C(C)C)C2=O | T1: inactive; T2: inactive; T3: inactive
- Cc1cccc(NC2=C(C#N)C(=O)NC3(CCCC3)S2)c1 | T1: inactive; T2: inactive; T3: inactive
- CCCc1nc2nc(C)cc(Nc3cccc(F)c3)n2n1 | T1: inactive; T2: inactive; T3: inactive
- Cc1ccc(-c2nc(NCc3ccco3)c3ccccc3n2)cc1 | T1: inactive; T2: inactive; T3: inactive
- Clc1ccc(-c2noc3ncnc(NCCCN4CCCC4)c23)cc1 | T1: inactive; T2: inactive; T3: inactive
- CCn1c2ccccc2c2cc(CNCCNC(=O)c3nonc3N)ccc21 | T1: inactive; T2: inactive
- O=C(CCNc1ccc2c(c1)oc1ccccc12)c1ccc(Br)cc1 | T1: inactive; T2: inactive; T3: inactive
- COC1=C(OC)C(=O)C(CCCCCCCCCCO)=C(C)C1=O | T1: inactive; T2: inactive; T3: inactive
- Cc1cc(C)c(CNCc2noc(-c3ccco3)n2)c(C)c1CO | T1: inactive; T2: inactive; T3: inactive
- Cc1cc(=O)[nH]c(NCCO)n1 | T1: inactive; T2: inactive; T3: inactive
- O=C1CCC2(CCNCC2)CN1CCc1nc2cc(Cl)ccc2[nH]1 | T1: inactive; T2: inactive; T3: inactive
- c1ccc(N2CCOC(Cn3ccnc3-c3cc4n(n3)CCNC4)C2)cc1 (stereo not given) | T1: inactive; T2: inactive; T3: inactive
- COC(=O)C1=C(N)Oc2c(oc(CO)cc2=O)C1c1ccccc1Br (stereo not given) | T1: inactive; T2: inactive; T3: inactive
- Nc1ccc(Cc2nc3cc4ccccc4cc3[nH]2)cc1 | T1: inactive; T2: inactive; T3: inactive
- CN1C[C@H]2[C@@H](c3ccc(-n4cccn4)cc3)N[C@](CO)(c3ccccc3)[C@H]2C1 | T1: inactive; T2: inactive; T3: inactive
- CN1CCC(=C2c3ccccc3CCc3sccc32)CC1 | T1: inactive; T2: inactive; T3: inactive
- O=C(Cn1nc(C2CCNCC2)n(-c2ccccc2)c1=O)NCc1ccco1 | T1: inactive; T2: inactive; T3: inactive
- Cc1cc(NCC(=O)N2CCCCC2)n2nc(-c3cccnc3)nc2n1 | T1: inactive; T2: inactive
- COCCCNCC1C(Oc2ccc(Cl)cc2)C(=O)N1c1ccccc1C (stereo not given) | T1: inactive; T2: inactive; T3: inactive
- CN(C)c1ccc(Nc2nc(-c3ccncc3)cs2)cc1 | T1: inactive; T2: inactive; T3: inactive
- CCOC(=O)c1cnc2ccc(OCC)cc2c1NCCN1CCOCC1 | T1: inactive; T2: inactive; T3: inactive
- NCC(CC(=O)O)C1CCCCC1 (stereo not given) | T1: inactive; T2: inactive; T3: inactive
- CC(=O)c1c(NCc2ccco2)oc(C)cc1=O | T1: inactive; T2: inactive; T3: inactive
- O=C(COc1ccc(F)cc1)N1CCC2(CC1)OCCCC2O (stereo not given) | T1: inactive; T2: inactive; T3: inactive
- COc1ccc(Br)cc1CNc1ccc(N2CCOCC2)cc1 | T1: inactive; T2: inactive; T3: inactive
- CNC(=O)[C@@H]1C[C@H](n2cc(CNS(=O)(=O)c3cc(C)ccc3F)nn2)CN1 | T1: inactive; T2: inactive; T3: inactive
- FC(F)(F)Oc1ccc(NCc2nnc(-c3ccccc3)o2)cc1 | T1: inactive; T2: inactive; T3: inactive
- CCC[C@H]1CN(C(=O)c2ccc(CO)cc2)C[C@@H]1N(C)C | T1: inactive; T2: inactive; T3: inactive
- COc1ccc(C(=O)c2sc3nc4c(c(-c5ccncc5)c3c2N)CCCC4)cc1OC | T1: inactive; T2: inactive; T3: inactive
- CCOC(=O)Cn1c(-c2nonc2N)nc2ccccc21 | T1: inactive; T2: inactive; T3: inactive
- CCCCOC(=O)c1c(N)n(CCc2ccccc2)c2nc3ccccc3nc12 | T1: inactive; T2: inactive; T3: inactive
- CC(C)Cc1cc(C(=O)N2CCCC3(CCNCC3)CC2)nc(=O)[nH]1 | T1: inactive; T2: inactive; T3: inactive
- CN1CCN(CCCNc2ncnc3onc(-c4ccc(F)cc4)c23)CC1 | T1: inactive; T2: inactive
- Cn1c(CCC(=O)N2CC[C@H]3NCCC[C@]3(CO)C2)nc2cccnc21 | T1: inactive; T2: inactive; T3: inactive
- CC(C)c1cc(NCCN2CCOCC2)n2ncc(-c3ccccc3)c2n1 | T1: inactive; T2: inactive

For reference, 4 entries once more:

{"smiles": "CCOc1ccc(-c2c(C(F)(F)F)n[nH]c2N)cc1OCC", "T1": "inactive", "T2": "inactive", "T3": "inactive"}
{"smiles": "CCc1nc(N)sc1C(=O)N1C[C@@H]2CC[C@H](C1)N(CC=C(C)C)C2=O", "T1": "inactive", "T2": "inactive", "T3": "inactive"}
{"smiles": "FC(F)(F)Oc1ccc(NCc2nnc(-c3ccccc3)o2)cc1", "T1": "inactive", "T2": "inactive", "T3": "inactive"}
{"smiles": "Cc1cc(=O)[nH]c(NCCO)n1", "T1": "inactive", "T2": "inactive", "T3": "inactive"}